Data: PubChem BioAssay AID1508600 (Functional Genomics Laboratory (NCATS/FGL), 2020)
The whole screen tested about 53,000 sequences, of which about 3,700 (7%) were called active.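 The calls were made as follows: active = gene knockdowns whose robust z-score for IL-1 alpha signal is at least 2 or at most -2, so actives lie on both sides; inactive = the rest.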 This is one part of the list.

Experiment: Components of the Cytosolic LPS Sensing Pathway: Gene Identification via Genome-wide siRNA Screen;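 also: robust z of the log signal after scaling to non-targeting control siRNA wells of the plate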
Details: RAW264.7 macrophages, IL-1a HTRF, actives lie on both sides, screened at 100 nM (by protocol), cells primed 5 h with Pam3CSK4 first
Summary of the method: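 Mouse macrophage line RAW264.7 is transfected with siRNA (100 nM final), grown 48h, primed with TLR ligand Pam3CSK4 5 h and given intracellular LipidA 24 h. IL-1a in supernatant is read by HTRF and viability by luminescence.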

Sequence | z-score
GGCUCAAAGUUUUCAGAGATT against Kctd14 | inactive: -0.0155
GGCCUGGAGCUUUUAUAUUTT against 3110053B16Rik | inactive: -0.681
CCUGUUUCUAGAGCUGGAGTT against A630001O12Rik | inactive: 0.000246
CAUUUACAUUCUUAUUACCTT against Olfr473 | inactive: -1.43
CCGAGUGUAAACUUCAAAUTT against Vash2 | inactive: 0.212
CGACGAAUCUCACACGCUGTT against H2-T23 | inactive: 1.2
GGAGAAAAAAUACUUGAUGTT against Ppm1d | inactive: 1.48
GGUGACACCCAGAAUGAGCTT against Htatsf1 | inactive: 1.81
CGUACUUCAGCGAUUUAAATT against Exoc2 | inactive: 0.555
GCGACUUCGGAAGAUCUAUTT against Srl | inactive: 1.32
GGACUACAUCAACCUGGAUTT against Mlf2 | inactive: 0.25
GGCCUUGCUUUCAUAAAGUTT against Mrpl49 | inactive: 0.348
GGAUCAAUGAAAAUGAGAATT against Fzr1 | inactive: -0.0554
GGACAUGAAACUCUGCACCTT against Drd2 | inactive: 1.27
GGACGUGACUCUCAUCAUCTT against Atp2b3 | inactive: 0.929
UUUUAGGUUCCCUGGAAUGTT against Mrgprb5 | inactive: 0.678
GCUGAAAAAGUGGAAAUCGTT against Psma4 | inactive: -0.794
GGCCAGAGGUGCAAUAUUGTT against Notch2 | inactive: 1.19
GGAUGUGGAGCAAGUGAAGTT against Stx1b | active: -2.05
GGAAUGCUUCAAAAGGGCATT against Fkbp1b | inactive: 0.427
GCUCUGUCCAAGCACUUUATT against P2rx4 | inactive: -0.626
GGAGUUUUACGCACUCUGUTT against Med29 | inactive: 0.117

Sequence | z-score
GCUCUUCGAGUAAAUCACATT against Zfp108 | inactive: -0.761
GAAAUCAGAAGAAAUGAAGTT against Phgr1 | inactive: -0.451
GGUAAACAUGAUAUUUGGGTT against Olfr670 | inactive: -0.277
CCAUGGUUCUGAUCAAUUUTT against Cyp2j11 | inactive: -0.274
GGCCUUCUUGCCAACUACATT against Ino80c | inactive: 0.866
GGGUUAGUAAUGAAUGAUGTT against Arpc5l | inactive: -0.77
GGAUACCACUUUAGAACCATT against Fgfr2 | inactive: 0.484
CGUAUUAGUAAUAAGGGCATT against Zc2hc1a | inactive: 1.02
GCACAUGUCUGUGAUUCAATT against St8sia1 | inactive: -0.166
GGCAUAUACACAAUUGAUATT against Arsk | inactive: -1.27
GGAUGAGAACAUUGUGAUUTT against Pask | inactive: 0.0868
GGCAUCAAAGGAGAUAAGGTT against Col9a2 | inactive: -0.0774
GGACUGAUGAUCAAGCAAATT against Col8a2 | inactive: -0.387
GCUUGUGAGUGGAACUUUCTT against Mcm6 | inactive: 0.62
GGAAUGUAUGUCUCAGCUCTT against Olfr45 | inactive: -0.343
GGCCUUUGACUUAUUCGAUTT against Cetn4 | inactive: 0.0369
GCAGCUCUAGGUGUUCAGUTT against Gjc3 | inactive: 0.955
CCUACUUUGGACUCUUUCATT against Tnfsf12 | active: -2.25
GGCAGAAGAAAUCUUAAAUTT against Dnali1 | inactive: 0.31
GGUCCUCAGAUUUUGGGACTT against Sorcs2 | inactive: 0.432
GCUACGUGUACCUGGAGUGTT against Cpeb1 | inactive: -0.502
GGGAUGCAUCAAAAUACAATT against Pdk3 | active: 4.82

Sequence | z-score
GGUAUUCCUCCCUGAGCAUTT against Zfp747 | inactive: 1.1
GACUAAGCAGUGGAAGAGCTT against Krtap21-1 | inactive: 0.0863
GCUCCUCAUGAUAUUGGCCTT against Nagk | inactive: 0.239
GGAACUCCACUUUCUUUUUTT against Ripply3 | active: 2.27
CCUGAUCCUGACUAACCGUTT against Htr2b | inactive: -0.701
GGACAGACGUGCACUUAGATT against Garnl3 | inactive: 0.875
GUGCCCAGAGUCCUAUCCATT against Sprr2j-ps | inactive: 0.0491
GCAGACGAAUAAAUAGCUGTT against Capza1 | inactive: 1.13
GGCUUAAGUUAGGCAAACUTT against Crtc3 | inactive: -0.0675
GGACUUAACUCGUGGAUCCTT against Fancc | inactive: 1.23
GGCCCAACAUAUAUCAAAUTT against Adck2 | inactive: 1.38
GGAAAAGCACAGAUUUCUATT against Ap5m1 | inactive: 1.31
GGGAAUGGGUCUUGUAAACTT against Ppat | inactive: -1.4
GGGCAAGUAUGGCUAUGUGTT against Pram1 | inactive: -0.178
GGAGGAACAGAGUUUGCACTT against Olfr642 | inactive: -1.05
GCACUGGACUUAGGAUGGUTT against Ankrd22 | active: 2.2
CCGCUAUAUCACGGAGCAGTT against En1 | active: 2.45
GGAUCUGUUUCACUGUGGCTT against Corin | inactive: 0.225
GCUUUCGCCAAUAAAAAAGTT against Slc13a2 | inactive: 0.265
GGGUGAUCCAGGUUUGCCATT against Sftpd | inactive: -1.94
GCUCCAGUAUCAAAUCGCUTT against Frmd3 | inactive: 0.0325
GGAAAGAAGGGAUUAUCCATT against Faim | inactive: 0.372

Looked up above.
Entry for GCGACUUCGGAAGAUCUAUTT against Srl under z-score: inactive: 1.32
Entry for GGGCAAGUAUGGCUAUGUGTT against Pram1 under z-score: inactive: -0.178

Looked up one by one from above, four records:
Sequence | z-score
GGUAUUCCUCCCUGAGCAUTT against Zfp747 | inactive: 1.1
CCUGAUCCUGACUAACCGUTT against Htr2b | inactive: -0.701
GGGAAUGGGUCUUGUAAACTT against Ppat | inactive: -1.4
GGAAAGAAGGGAUUAUCCATT against Faim | inactive: 0.372

Continued.

Sequence | z-score
GGCAACAAUGAGAGAAGAATT against Aimp1 | inactive: -1.79
GGAAGACAACAAGGAAGAGTT against Mucl2 | inactive: 0.738
GGAAAAUAAGUUGUCUGUCTT against Olfr120 | inactive: -1.45
CCGCGUGUGCUCCUUUUUGTT against Zcchc3 | inactive: -0.627
GGUCUAUCGUUAUUUGAUATT against Man1a | inactive: 0.615
GGAUCAUCUUCUUUGGGUCTT against Aig1 | inactive: 1.03
GGAUGGCUUUGGAGAACACTT against Sat1 | inactive: -0.25
GGAUGCUGUCACAAAUGUGTT against Cibar1 | inactive: -0.983
GGCACCAUAGAUGUUUGAGTT against Cyp4f16 | inactive: -1.34
GGUCACUGAACCUAUUUCCTT against Arhgap15 | active: -2.56
CCUCAAAAAGUGGGAUGAGTT against Gnpat | inactive: -0.475
GGCAUAUGUCAAUUUGUUATT against Ntsr1 | inactive: 0.279
CCAGACAAUCUUUCACUGCTT against Gstm6 | inactive: 1.19
GGGAACUUUUUUGAUGGGCTT against Psmb2 | inactive: -1.13
GGAUGAUCUGGUCCUUUUGTT against Stx17 | inactive: -0.53
GGGUCAAACCCAUACAGCUTT against Dcaf5 | inactive: -1.22
CCUGACUCGUAUUAAAACATT against Zbtb7a | inactive: -0.546
GGAUGUCGAGACCAUAAUCTT against Clcn5 | inactive: 0.883
GGACAGAGCAUCACAGAAGTT against Tmem154 | active: -2.33
GCUGUCCUGCCGUAAUAGATT against Oma1 | inactive: -0.619
CGAACAACUUGAAGUCACUTT against Tpm1 | inactive: -0.464
GGAAGGACCAAAGCUUUCUTT against Olfr1123 | inactive: 0.982

Sequence | z-score
GGUCAAAAUUUCCAAACUCTT against Gpr34 | inactive: -1.4
GCCUAAUAAAGAGCCUGUCTT against Pth2 | inactive: 0.458
GGUUGUUUUCCCUAGGGUGTT against Sema6a | inactive: -0.543
CCUACUGUUUGAGUCCCAGTT against Kmt2b | inactive: 1.33
GCCCUCAUACCUACUAUGUTT against 4631405J19Rik | inactive: 0.787
GGGUAGAUUGAUUGUUGGATT against Dcpp1 | inactive: 1.37
GGCCAUCUAAUGACCUUCATT against Madd | active: -2.7
GGUUUUCUUUCCUUCUUGGTT against Abcd4 | inactive: 0.923
GGCCUGCGUUCAGAAGAGUTT against Wrn | active: 3.46
GCCUAAUUUUGUGUAUUCUTT against Ndrg4 | inactive: -1.13
GGCCUAAGCAAGUUGCGCATT against Fbxl8 | inactive: 1.5
GGAGUUCUGUCCAUUUUGATT against Olfr1198 | inactive: 0.45
GGAAGUGAAAGUGAAUUGGTT against Tia1 | inactive: -0.488
GGGUUUGAUUAGCUUAAUUTT against Olfr905 | inactive: -0.927
GGAGAAACUUAAGAGGCUUTT against Trp53bp2 | inactive: -0.827
GAGCACAUCAUGGAACAUCTT against Mcfd2 | inactive: 0.583
CCCUGCAUUAGAAAUUGAATT against Sst | inactive: 0.645
GCUACUUCAUGGAAUCUUCTT against Mrgprb8 | inactive: -0.668
GCCACAAGAAUCUCAUUGUTT against C130046B21Rik | inactive: -1.42

No new results follow: entries from further up.
Sequence | z-score
GCUUUCGCCAAUAAAAAAGTT against Slc13a2 | inactive: 0.265
GGGUGAUCCAGGUUUGCCATT against Sftpd | inactive: -1.94
GCUCCAGUAUCAAAUCGCUTT against Frmd3 | inactive: 0.0325
